Test results taken from doi:10.1101/2025.10.03.680274.
Substitutions are numbered along the chain they refer to. These are yes or no findings as the source states them, for the method shown. In cells and extracts the contact can be indirect. Tags and fused reporters may be left off the sequences shown.

Amino acid sequences for entries named in this document (tags omitted). A change or cut given only in a name is not applied to a line headed by its entry.
UniProt P49407, whole entry: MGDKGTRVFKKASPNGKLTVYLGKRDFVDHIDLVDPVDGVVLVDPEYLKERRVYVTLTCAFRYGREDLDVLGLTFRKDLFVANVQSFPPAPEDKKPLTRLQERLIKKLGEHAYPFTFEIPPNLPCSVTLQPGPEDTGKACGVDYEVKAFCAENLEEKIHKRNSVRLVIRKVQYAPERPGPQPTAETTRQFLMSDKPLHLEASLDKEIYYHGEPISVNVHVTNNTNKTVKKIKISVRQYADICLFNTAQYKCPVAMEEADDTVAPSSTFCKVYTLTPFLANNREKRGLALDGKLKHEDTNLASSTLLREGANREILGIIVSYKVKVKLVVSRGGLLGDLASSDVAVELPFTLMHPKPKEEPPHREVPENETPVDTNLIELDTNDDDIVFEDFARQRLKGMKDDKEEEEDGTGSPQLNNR

Columns and labels:
Assay in all cases: split reporter
[1] = target: T1, ADGRL4 C-terminal Fragment 1 (ADGRL4-CTF1), HA-tagged, C-terminal SmBiT (human) (UniProt Q9HBW9)
T1 sequence: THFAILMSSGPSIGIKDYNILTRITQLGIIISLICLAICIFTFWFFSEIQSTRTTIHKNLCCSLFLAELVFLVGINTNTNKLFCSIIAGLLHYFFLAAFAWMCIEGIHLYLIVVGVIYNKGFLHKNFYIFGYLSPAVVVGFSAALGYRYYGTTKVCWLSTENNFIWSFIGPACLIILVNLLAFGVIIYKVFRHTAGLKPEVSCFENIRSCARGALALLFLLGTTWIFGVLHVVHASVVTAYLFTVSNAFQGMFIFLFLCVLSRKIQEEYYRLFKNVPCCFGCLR

[2] = target: T2, ADGRL4 Full-Length 1 (ADGRL4-FL1), HA-tagged, C-terminal SmBiT (human) (UniProt Q9HBW9)
T2 sequence: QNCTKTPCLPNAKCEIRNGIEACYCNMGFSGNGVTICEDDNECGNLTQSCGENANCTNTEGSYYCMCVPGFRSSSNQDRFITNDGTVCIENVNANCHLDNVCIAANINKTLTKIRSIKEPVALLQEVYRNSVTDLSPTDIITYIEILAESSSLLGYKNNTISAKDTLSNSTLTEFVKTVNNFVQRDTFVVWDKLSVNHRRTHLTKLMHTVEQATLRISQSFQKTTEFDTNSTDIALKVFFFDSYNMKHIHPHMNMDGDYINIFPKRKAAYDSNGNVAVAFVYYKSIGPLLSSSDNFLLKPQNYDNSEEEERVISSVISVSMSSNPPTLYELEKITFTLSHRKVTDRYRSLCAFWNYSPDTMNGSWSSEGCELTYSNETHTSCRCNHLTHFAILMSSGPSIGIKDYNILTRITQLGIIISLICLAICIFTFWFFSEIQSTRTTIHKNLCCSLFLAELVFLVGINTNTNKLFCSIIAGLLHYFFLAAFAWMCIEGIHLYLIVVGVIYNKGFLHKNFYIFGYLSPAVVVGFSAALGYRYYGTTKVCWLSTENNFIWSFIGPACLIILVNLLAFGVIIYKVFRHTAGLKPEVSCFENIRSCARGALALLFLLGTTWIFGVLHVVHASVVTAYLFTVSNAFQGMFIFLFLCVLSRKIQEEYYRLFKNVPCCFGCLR

[3] = target: T3, ADGRL4 Mutated Full-Length 1 (ADGRL4-FLmut1), H405A T407A, HA-tagged, C-terminal SmBiT (human) (UniProt Q9HBW9)
T3 sequence: T2 sequence with H386A, T388A

Measured: binding

LgBiT-βarr1 (β-arrestin 1) (from UniProt P49407 1-418)
no binding: all assays above

LgBiT-βarr2 (β-arrestin 2) (from UniProt P32121 1-409)
no binding: all assays above
